Experimental data taken from patent publication US10299475B2, “Pesticide” (ISHIHARA SANGYO KAISHA, LTD., priority 2013, dated 2019).
Some entries share one result that the patent states for a list of compounds.

system: Haemaphysalis longicornis (larvae); experiment: Test for examining effect on Haemaphysalis longicornis (larvae), coated vial contact test; assay type: in vivo; conditions: 100 ppm solution coated on plastic vial, 20 larvae, 24 hours after contact, 25° C., constant dark, relative humidity 80-100%
Excerpt: Test for Examining Effect on Haemaphysalis longicornis (larvae)

Row | SMILES | mortality [%]
1 | CC(C)CNC(=O)c1ccc(CCOc2ccccc2)cc1 [1-1] | ≥ 90
2 | CC(C)CNC(=O)c1ccc(CCOc2ccccc2F)cc1 [1-2] | ≥ 90
3 | CC(C)CNC(=O)c1ccc(CCOc2cccc(F)c2)cc1 [1-3] | ≥ 90
4 | CC(C)CNC(=O)c1ccc(CCOc2ccc(F)cc2)cc1 [1-4] | ≥ 90
5 | CC(C)CNC(=O)c1ccc(CCOc2ccccc2Cl)cc1 [1-5] | ≥ 90
6 | CC(C)CNC(=O)c1ccc(CCOc2cccc(Cl)c2)cc1 [1-6] | ≥ 90
7 | CC(C)CNC(=O)c1ccc(CCOc2ccc(Cl)cc2)cc1 [1-7] | ≥ 90
8 | CC(C)CNC(=O)c1ccc(CCOc2ccccc2Br)cc1 [1-8] | ≥ 90
9 | CC(C)CNC(=O)c1ccc(CCOc2ccc(Br)cc2)cc1 [1-10] | ≥ 90
10 | Cc1cccc(OCCc2ccc(C(=O)NCC(C)C)cc2)c1 [1-12] | ≥ 90
11 | Cc1ccc(OCCc2ccc(C(=O)NCC(C)C)cc2)cc1 [1-13] | ≥ 90
12 | CCc1cccc(OCCc2ccc(C(=O)NCC(C)C)cc2)c1 [1-15] | ≥ 90
13 | CC(C)CNC(=O)c1ccc(CCOc2ccccc2C(F)(F)F)cc1 [1-17] | ≥ 90
14 | CC(C)CNC(=O)c1ccc(CCOc2cccc(C(F)(F)F)c2)cc1 [1-18] | ≥ 90
15 | CC(C)CNC(=O)c1ccc(CCOc2ccc(C(F)(F)F)cc2)cc1 [1-19] | ≥ 90
16 | CC(C)CNC(=O)c1ccc(CCOc2ccccc2OC(F)(F)F)cc1 [1-23] | ≥ 90
17 | CC(=O)c1cccc(OCCc2ccc(C(=O)NCC(C)C)cc2)c1 [1-27] | ≥ 90
18 | CC(C)CNC(=O)c1ccc(CCOc2cccc(C#N)c2)cc1 [1-48] | ≥ 90
19 | CC(C)CNC(=O)c1ccc(CCOc2cccc([N+](=O)[O-])c2)cc1 [1-51] | ≥ 90
20 | CC(C)CNC(=O)c1ccc(CCOc2ccc(F)c(OC(F)(F)F)c2)cc1 [1-68] | ≥ 90
21 | CC(C)CNC(=O)c1ccc(CCOc2ccc(Cl)c(OC(F)(F)F)c2)cc1 [1-69] | ≥ 90
22 | CC(C)CNC(=O)c1ccc(CCOc2ccc(Br)c(OC(F)(F)F)c2)cc1 [1-70] | ≥ 90
23 | CC(C)CNC(=O)c1ccc(CCOc2cc(Cl)cc(OC(F)(F)F)c2)cc1 [1-72] | ≥ 90
24 | CC(C)CNC(=O)c1ccc(CCOc2cc(Br)cc(OC(F)(F)F)c2)cc1 [1-73] | ≥ 90

Row | SMILES | mortality [%]
25 | CC(C)CNC(=O)c1ccc(CCOc2cc(OC(F)(F)F)ccc2F)cc1 [1-74] | ≥ 90
26 | CC(C)CNC(=O)c1ccc(CCOc2cc(OC(F)(F)F)ccc2Cl)cc1 [1-75] | ≥ 90
27 | CC(C)CNC(=O)c1ccc(CCOc2ccc(OC(F)(F)F)c(F)c2)cc1 [1-80] | ≥ 90
28 | CC(C)CNC(=O)c1ccc(CCOc2ccc(OC(F)(F)F)c(Br)c2)cc1 [1-82] | ≥ 90
29 | CC(C)CNC(=O)c1ccc(CCOc2ccc(Br)cc2C(F)(F)F)cc1 [1-88] | ≥ 90
30 | CC(C)CNC(=O)c1ccc(CCOc2cccc(C(F)(F)F)c2F)cc1 [1-95] | ≥ 90
31 | CC(C)CNC(=O)c1ccc(CCOc2cccc(C(F)(F)F)c2Br)cc1 [1-97] | ≥ 90
32 | CC(C)CNC(=O)c1ccc(CCOc2ccc(F)c(C(F)(F)F)c2)cc1 [1-98] | ≥ 90
33 | CC(C)CNC(=O)c1ccc(CCOc2ccc(Cl)c(C(F)(F)F)c2)cc1 [1-99] | ≥ 90
34 | CC(C)CNC(=O)c1ccc(CCOc2ccc(Br)c(C(F)(F)F)c2)cc1 [1-100] | ≥ 90
35 | CC(C)CNC(=O)c1ccc(CCOc2cc(F)cc(C(F)(F)F)c2)cc1 [1-101] | ≥ 90
36 | CC(C)CNC(=O)c1ccc(CCOc2cc(Cl)cc(C(F)(F)F)c2)cc1 [1-102] | ≥ 90
37 | CC(C)CNC(=O)c1ccc(CCOc2cc(Br)cc(C(F)(F)F)c2)cc1 [1-103] | ≥ 90
38 | CC(C)CNC(=O)c1ccc(CCOc2cccc(OC(F)(F)F)c2)cc1F [1-113] | ≥ 90
39 | CC(C)CNC(=O)c1ccc(CCOc2cccc(OC(F)(F)F)c2)cc1Br [1-115] | ≥ 90
40 | CC(C)CNC(=O)c1ccc(CCOc2cccc(OC(F)(F)F)c2)c(F)c1 [1-120] | ≥ 90
41 | Cc1cc(C(=O)NCC(C)C)ccc1CCOc1cccc(OC(F)(F)F)c1 [1-124] | ≥ 90
42 | CCCNC(=O)c1ccc(CCOc2cccc(OC(F)(F)F)c2)cc1 [1-128] | ≥ 90
43 | CCCCNC(=O)c1ccc(CCOc2cccc(OC(F)(F)F)c2)cc1 [1-129] | ≥ 90
44 | CCC(C)NC(=O)c1ccc(CCOc2cccc(OC(F)(F)F)c2)cc1 (stereo not shown) [1-130] | ≥ 90
45 | CC(C)CCNC(=O)c1ccc(CCOc2cccc(OC(F)(F)F)c2)cc1 [1-131] | ≥ 90
46 | CCC(C)CNC(=O)c1ccc(CCOc2cccc(OC(F)(F)F)c2)cc1 (stereo not shown) [1-132] | ≥ 90
47 | CC(C)(C)CNC(=O)c1ccc(CCOc2cccc(OC(F)(F)F)c2)cc1 [1-133] | ≥ 90
48 | CN(C)CC(C)(C)CNC(=O)c1ccc(CCOc2cccc(OC(F)(F)F)c2)cc1 [1-135] | ≥ 90

Row | SMILES | mortality [%]
49 | COC(CNC(=O)c1ccc(CCOc2cccc(OC(F)(F)F)c2)cc1)OC [1-136] | ≥ 90
50 | CSCCNC(=O)c1ccc(CCOc2cccc(OC(F)(F)F)c2)cc1 [1-138] | ≥ 90
51 | C=C(C)CNC(=O)c1ccc(CCOc2cccc(OC(F)(F)F)c2)cc1 [1-142] | ≥ 90
52 | CC(C)NNC(=O)c1ccc(CCOc2cccc(OC(F)(F)F)c2)cc1 [1-145] | ≥ 90
53 | O=C(NCC1CCOCC1)c1ccc(CCOc2cccc(OC(F)(F)F)c2)cc1 [1-152] | ≥ 90
54 | CC(C)CN(C)C(=O)c1ccc(CCOc2cccc(OC(F)(F)F)c2)cc1 [1-156] | ≥ 90
55 | CC(NC(=O)c1ccc(CCOc2cccc(OC(F)(F)F)c2)cc1)C1CC1 (stereo not shown) [1-161] | ≥ 90
56 | CCCC(C)NC(=O)c1ccc(CCOc2cccc(OC(F)(F)F)c2)cc1 (stereo not shown) [1-162] | ≥ 90
57 | CC(C)CC(C)NC(=O)c1ccc(CCOc2cccc(OC(F)(F)F)c2)cc1 (stereo not shown) [1-163] | ≥ 90
58 | CC(C)NC(=O)c1ccc(CCOc2cccc(OC(F)(F)F)c2)cc1 [1-164] | ≥ 90
59 | CC(C)C(C)NC(=O)c1ccc(CCOc2cccc(OC(F)(F)F)c2)cc1 (stereo not shown) [1-165] | ≥ 90
60 | CC(C)(C)NC(=O)c1ccc(CCOc2cccc(OC(F)(F)F)c2)cc1 [1-167] | ≥ 90
61 | CCC(C)(C)NC(=O)c1ccc(CCOc2cccc(OC(F)(F)F)c2)cc1 [1-170] | ≥ 90
62 | O=C(NCC1CCCO1)c1ccc(CCOc2cccc(OC(F)(F)F)c2)cc1 (stereo not shown) [1-172] | ≥ 90
63 | CC(NC(=O)c1ccc(CCOc2cccc(OC(F)(F)F)c2)cc1)C(C)(C)C (stereo not shown) [1-177] | ≥ 90
64 | CC(C)CNC(=O)c1ccc(CCOc2cccc(OC(F)F)c2)cc1 [1-180] | ≥ 90
65 | CC(C)CNC(=O)c1ccc(CCOc2cc(C(F)(F)F)cc(C(F)(F)F)c2)cc1 [1-182] | ≥ 90
66 | CC(C)CNC(=O)c1ccc(CCOc2cccc(OC(F)(F)F)c2)c(N)c1 [1-183] | ≥ 90
67 | CC(C)CNC(=O)c1ccc(CCOc2cccc(OC(F)(F)F)c2)c([N+](=O)[O-])c1 [1-184] | ≥ 90
68 | CC(NC(=O)c1ccc(CCOc2ccc(Br)c(OC(F)(F)F)c2)cc1)C1CC1 (stereo not shown) [1-185] | ≥ 90
69 | CC(C)C(C)NC(=O)c1ccc(CCOc2ccc(Br)c(OC(F)(F)F)c2)cc1 (stereo not shown) [1-186] | ≥ 90
70 | CC(C)CNC(=O)c1ccc(CCOc2ccc(Br)cc2Br)cc1 [1-187] | ≥ 90
71 | CC(C)CNC(=O)c1ccc(CCOc2ccc(Br)cc2F)cc1 [1-188] | ≥ 90
72 | CC(C)CNC(=O)c1ccc(CCOc2ccc(Br)cc2Cl)cc1 [1-189] | ≥ 90

Row | SMILES | mortality [%]
73 | CC(C)CNC(=O)c1ccc(CCOc2cc(F)cc(F)c2)cc1 [1-190] | ≥ 90
74 | CC(C)CNC(=O)c1ccc(CCOc2ccc(Cl)cc2F)cc1 [1-191] | ≥ 90
75 | CC(C)CNC(=O)c1ccc(CCOc2ccc(Cl)cc2Br)cc1 [1-192] | ≥ 90
76 | CC(C)CNC(=O)c1ccc(CCOc2cc(F)cc(Br)c2)cc1 [1-193] | ≥ 90
77 | CC(C)CNC(=O)c1ccc(CCOc2ccc(Cl)cc2Cl)cc1 [1-194] | ≥ 90
78 | CC(C)CNC(=O)c1ccc(CCOc2cccc(F)c2F)cc1 [1-195] | ≥ 90
79 | CC(C)CNC(=O)c1ccc(CCOc2cccc(Br)c2F)cc1 [1-196] | ≥ 90
80 | CC(C)CNC(=O)c1ccc(CCOc2cc(Br)ccc2F)cc1 [1-197] | ≥ 90
81 | CC(C)CNC(=O)c1ccc(CCOc2cc(Br)cc(Br)c2)cc1 [1-198] | ≥ 90
82 | CC(C)CNC(=O)c1ccc(CCOc2ccc(Cl)c(F)c2)cc1 [1-200] | ≥ 90
83 | CC(C)CNC(=O)c1ccc(CCOc2ccc(Cl)c(Cl)c2)cc1 [1-201] | ≥ 90
84 | CC(C)CNC(=O)c1ccc(CCOc2ccc(F)c(F)c2)cc1 [1-202] | ≥ 90
85 | CC(C)CNC(=O)c1ccc(CCOc2ccc(Br)c(Cl)c2)cc1 [1-203] | ≥ 90
86 | CC(C)CNC(=O)c1ccc(CCOc2ccc(F)cc2F)cc1 [1-204] | ≥ 90
87 | CC(C)CNC(=O)c1ccc(CCOc2ccc(Br)c(F)c2)cc1 [1-205] | ≥ 90
88 | CC(C)CNC(=O)c1ccc(CCOc2cc(F)c(F)c(F)c2)cc1 [1-208] | ≥ 90
89 | Cc1ccccc1NC(=O)c1ccc(CCOc2ccc(Br)c(OC(F)(F)F)c2)cc1 [1-209] | ≥ 90
90 | CC(C)(C)NC(=O)c1ccc(CCOc2ccc(Br)c(OC(F)(F)F)c2)cc1 [1-210] | ≥ 90
91 | CCC(C)CNC(=O)c1ccc(CCOc2ccc(Br)c(OC(F)(F)F)c2)cc1 (stereo not shown) [1-211] | ≥ 90
92 | CC(C)(C)CNC(=O)c1ccc(CCOc2ccc(Br)c(OC(F)(F)F)c2)cc1 [1-212] | ≥ 90
93 | CCC(C)NC(=O)c1ccc(CCOc2ccc(Br)c(OC(F)(F)F)c2)cc1 (stereo not shown) [1-213] | ≥ 90
94 | CC(NC(=O)c1ccc(CCOc2ccc(Br)c(OC(F)(F)F)c2)cc1)C(C)(C)C (stereo not shown) [1-214] | ≥ 90
